From ChEMBL document CHEMBL3988442, “University of Dundee, Small-Polar-MMV Screening Library” (2021).

The chains behind the UniProt entries cited, without tags or fusion partners. Residues count along the entry.
UniProt Q8IDJ8, 1-583: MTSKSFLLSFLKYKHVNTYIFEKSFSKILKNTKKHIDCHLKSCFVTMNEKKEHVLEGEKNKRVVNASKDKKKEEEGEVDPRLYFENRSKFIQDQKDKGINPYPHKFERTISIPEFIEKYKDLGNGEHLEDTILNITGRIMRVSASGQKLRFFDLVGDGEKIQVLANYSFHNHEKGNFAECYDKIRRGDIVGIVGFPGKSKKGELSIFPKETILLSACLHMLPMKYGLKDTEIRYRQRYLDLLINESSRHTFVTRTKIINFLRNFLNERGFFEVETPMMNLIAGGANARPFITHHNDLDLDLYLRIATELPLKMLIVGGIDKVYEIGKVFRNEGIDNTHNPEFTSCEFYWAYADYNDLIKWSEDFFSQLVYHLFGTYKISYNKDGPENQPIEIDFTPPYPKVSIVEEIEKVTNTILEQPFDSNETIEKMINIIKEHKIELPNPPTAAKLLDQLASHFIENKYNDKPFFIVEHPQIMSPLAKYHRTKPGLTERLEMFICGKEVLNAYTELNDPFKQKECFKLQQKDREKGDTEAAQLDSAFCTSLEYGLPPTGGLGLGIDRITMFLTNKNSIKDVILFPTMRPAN
UniProt P9WPC5, whole entry: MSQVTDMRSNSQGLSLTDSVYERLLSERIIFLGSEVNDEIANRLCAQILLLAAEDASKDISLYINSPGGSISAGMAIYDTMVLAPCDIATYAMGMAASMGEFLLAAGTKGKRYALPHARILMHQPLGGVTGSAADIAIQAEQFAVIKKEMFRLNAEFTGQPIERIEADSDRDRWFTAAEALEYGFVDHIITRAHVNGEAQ
UniProt P9WPC3, whole entry partner: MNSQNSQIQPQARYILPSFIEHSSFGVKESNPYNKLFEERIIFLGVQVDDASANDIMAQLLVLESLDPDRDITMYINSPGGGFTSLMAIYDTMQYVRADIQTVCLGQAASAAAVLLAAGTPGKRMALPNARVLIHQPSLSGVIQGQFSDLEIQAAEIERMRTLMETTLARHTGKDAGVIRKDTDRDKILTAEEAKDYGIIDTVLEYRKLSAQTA
UniProt P9WFT3, whole entry: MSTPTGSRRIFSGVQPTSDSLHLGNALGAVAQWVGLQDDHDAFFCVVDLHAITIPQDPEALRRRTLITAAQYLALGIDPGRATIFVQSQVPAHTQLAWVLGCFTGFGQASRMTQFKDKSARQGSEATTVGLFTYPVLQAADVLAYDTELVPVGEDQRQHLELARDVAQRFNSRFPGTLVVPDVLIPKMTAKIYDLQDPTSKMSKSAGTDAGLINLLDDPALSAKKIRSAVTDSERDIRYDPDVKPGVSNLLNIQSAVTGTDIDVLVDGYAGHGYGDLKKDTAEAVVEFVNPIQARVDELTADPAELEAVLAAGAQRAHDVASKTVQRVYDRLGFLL

Values are the deposited “Percent Effect”, in %.
The controls that fix the scale are not given in the record; negative values are as filed.
The compounds are a random part of those screened.
A dash means the value is not listed here; it may have been measured.

A: 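Lysine-tRNA ligase, Plasmodium falciparum 3D7 (UniProt Q8IDJ8). Enzyme assay of the cytosolic lysyl-tRNA synthetase in 384-well plates, read by luminescence. Compounds at 30 µM. Direction is inferred from only a few compounds that gave an IC50; most scored high, so higher reads as stronger inhibition. Size under these conditions: about 69,000 compounds, about 49 of them at 50% or above in at least one test.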
B: 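ClpP1P2, Mycobacterium tuberculosis (UniProt P9WPC5 and UniProt P9WPC3). Protease assay of ClpP1P2, read by the AMC dye that it sets free. Tested at 50 µM. Higher reads as stronger inhibition, judged from the few compounds that gave an IC50. Most other retested compounds had strongly negative values. About 69,000 compounds were tested under these conditions; 0.015% (about 10) showed 50% or more at least once.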
C: 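Enzyme assay of tryptophanyl-tRNA synthetase; the read-out is not stated. Target: Tryptophan-tRNA ligase, Mycobacterium tuberculosis (UniProt P9WFT3). Tested at 10 µM. Direction is not recorded; retested compounds ran higher, which suggests that high means inhibition. Size under these conditions: about 65,000 compounds, about 64 of them at 50% or above in at least one test.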

SMILES	A	B	C
CN(C)C(=O)COCC1CN(CC2CCOCC2)Cc2ncn(C)c21 (stereo not drawn)	-0.1852%	-16.23%	-4.628%
COc1cccc(CC(=O)NCc2cnc(C)nc2C2CCCN2C)c1 (stereo not drawn)	2.699%	0.1057%	-
CCCc1nnc(SCC(=O)Nc2cc(C(C)(C)C)nn2C)[nH]1	3.965%	7.208%	0.4409%
COc1ccc([C@@H]2C[C@H](NC(C)=O)C[C@H](Cc3ccccc3)O2)cn1	2.135%	1.612%	-1.859%
COCC[C@]1(O)CCN(Cc2ccccn2)C[C@H]1C	10.73%	-3.053%	1.224%
Cn1cc(CN2CCC3(CCN(c4cnn(C)c4)C3=O)C2)cn1 (stereo not drawn)	7.048%	4.555%	0.6876%
CCC(C(=O)N(C)CCC1=CCN(C)CC1)c1ccccc1 (stereo not drawn)	5.025%	17.13%	2.719%
CN1CCn2nc(-c3nc4ccccc4n3C)cc2C1	-8.845%	13.65%	-21.6%
CCNC(=O)C1CCN(c2cc(CC)nc3ccnn23)C1 (stereo not drawn)	-1.095%	-6.315%	5.121%
COC(=O)c1cccc(C(=O)N(C)Cc2cccc(F)c2)c1	3.112%	18.48%	0.1468%
CCn1cc(CN2C[C@@H]3CCCN3C[C@H]2CCSC)c(C)n1	0.1445%	-0.9303%	-
FC1(F)CCNCC12CCN(c1ccccn1)C2 (stereo not drawn)	0.6924%	14.44%	7.546%
O[C@@H]1CN(c2cnc3ccccc3n2)CC[C@H]1c1ccc2c(c1)OCO2	-5.144%	-65.36%	2.496%
Oc1nnc(-c2cccs2)c2sc(N3CCCC3)nc12	0.08079%	-19.38%	-3.549%
Cc1ncc(C(=O)N2CCCCC2c2nc3cc(F)ccc3[nH]2)c(O)n1 (stereo not drawn)	4.994%	-11.28%	1.782%
Cc1noc(C)c1S(=O)(=O)N1C[C@@H](C(=O)O)[C@H](c2ccccn2)C1	1.991%	0.8408%	-1.321%
N[C@H]1CN(C(=O)CCCc2ccc(F)cc2)C[C@@H]1C1CC1	3.91%	-12.62%	0%
O=C(c1ccco1)N1CCC2(CC1)CCN(c1ncccn1)CC2	2.782%	-9.979%	-5.087%
CN(C)C(=O)CN1CCC2(CCCN(c3ncc(F)cn3)C2)C1=O (stereo not drawn)	-3.148%	7.35%	1.1%
CN(C)c1nccc(-c2c[nH][nH]c2=O)n1	2.589%	20.56%	-
CC(C)N1CCC(c2nnc(CN3CCCC3)n2C2CC2)CC1	3.277%	0.6479%	-0.6054%
c1cc(COC[C@H]2CCC[C@]23CNCCO3)ccn1	3.278%	2.604%	-
Cn1nnc2c1C(COCC1CC1)CN(C(=O)CC1=CCCCC1)C2 (stereo not drawn)	1.694%	9.681%	-11.53%
NC(=O)C1CCN(C(=O)CCn2ccc3cc(Br)ccc32)CC1	1.044%	-20.29%	3.223%
O=C(C1CCOCC1)N1CC[C@@H](O)[C@@H]1Cc1ccccc1	5.239%	15.33%	-3.151%
c1cnc(OCc2nnc3n2CCN(Cc2ccco2)C3)nc1	3.417%	-2.582%	-9.881%
CC(C)(C)c1cnc(CN2CCCC2Cn2cccn2)o1 (stereo not drawn)	-0.32%	1.085%	-1.338%
COc1ccc(C(=O)N(Cc2cnn(C)c2)C(C)C)cc1Br	-3.95%	0.947%	-1.657%
O=C(NCCNc1ccc(Br)cn1)c1ccc(O)cc1	4.597%	-3.449%	13.21%
Cc1nn(C)c(C)c1C1CCCN1CC(=O)Nc1cccnc1 (stereo not drawn)	-2.633%	-19.03%	13.98%
CC(C)N(C)Cc1nnc2n1CCCN(S(=O)(=O)C1CC1)C2	4.117%	3.977%	-1.621%
CCS(=O)(=O)Cc1csc(-c2ccc(S(C)(=O)=O)cc2)n1	5.767%	-4.934%	1.643%
CNS(=O)(=O)c1ccc(C(=O)NCc2ccnc(OC)c2)cc1	7.866%	-4.14%	0.0657%
CCn1ncnc1C(C)NC(=O)C1CCN(C2CCCCC2)CC1 (stereo not drawn)	6.74%	-6.289%	-2.294%
Cc1cccc(N(C)Cc2nc3c(cnn3C)c(=O)[nH]2)c1C	5.377%	2.182%	-2.062%
CC(=O)NCC(=O)N1Cc2nccn2CC(Cn2cccn2)C1 (stereo not drawn)	3.435%	-6.311%	-1.831%
Cc1c(C(=O)NCCC(=O)N2CCOCC2)oc2c(C)cccc12	2.609%	9.89%	3.753%
Cc1cc2nc(C(C)C)cc(N(C)CC3CCCN3C)n2n1 (stereo not drawn)	4.277%	2.391%	0.8777%
Cc1noc(C)c1CCCNC(=O)Nc1ccc2c(c1)COC2	-4.629%	11.94%	-1.235%
CN(C)C[C@@H]1CN(C(=O)c2cc(-c3ccccc3)n[nH]2)C[C@@H]1CO	-2.995%	22.66%	3.936%
CC(C)C(NC(=O)c1ccccc1F)C(=O)Nc1cnn(C)c1 (stereo not drawn)	6.731%	-1.772%	-4.479%
N#Cc1cccc(NC(=O)N2CCC3(CCC(=O)N(C4CC4)C3)CC2)c1	3.22%	2.349%	-1.961%
COc1ccc(Cl)cc1C(=O)N(C)Cc1cc(C)on1	-0.6176%	-22.06%	1.154%
O=C(CCNC(=O)c1cccc(OC(F)F)c1)Nc1cccnc1	2.23%	-5.476%	-0.8482%
O=C(NCC1CC1)C1CSCN1S(=O)(=O)c1cc(F)cc(F)c1 (stereo not drawn)	-2.106%	-10.21%	0%
O=C(c1cccc2c1OCO2)N1CCCC1Cn1cccn1 (stereo not drawn)	1.442%	-3.041%	-1.173%
Cc1noc(CNC(=O)[C@@H](C)NC(=O)OC(C)(C)C)n1	-0.5319%	2.052%	0.6159%
COc1ccccc1CCc1nc(CC2CCN(C)CC2)no1	2.645%	-3.613%	0.6717%
CC(C)COC(C)C(=O)N1CCCCC1 (stereo not drawn)	4.219%	-1.853%	0.3882%
CN(C)c1cc(CNC(=O)Nc2nncs2)ccn1	0.05359%	-11.96%	6.417%
O=C(CCCn1cncn1)N1CCCC1c1nc(-c2ccccc2)no1 (stereo not drawn)	-0.9146%	-3.492%	0.09311%
O=C(c1ccnnc1)N1C[C@H](Oc2cccnc2)[C@H]2OCCC[C@H]21	8.707%	3.681%	-4.503%
O=C(CCN1C[C@H]2CC[C@@H]1CN(c1ncccn1)C2)NCc1ccco1	2.158%	-5.462%	-0.7098%
O=C(NCCn1cccn1)C1CCC(=O)N(CC2CCCCC2)C1 (stereo not drawn)	-1.508%	-10.65%	-0.5072%
CCCC(=O)N1CCC(c2cc3n(n2)[C@@H](C(F)(F)F)C[C@@H](C)N3)CC1	0.9356%	-2.132%	-
CN(CCn1ccc2ccccc21)C(=O)Cc1nnn[nH]1	-1.816%	-1.65%	6.408%
O=C(Cc1csc(-c2ccco2)n1)N1CCCC1Cn1cccn1 (stereo not drawn)	0.6372%	-14.68%	2.563%
O=C(NCc1cccnc1)C1CN(c2cnc3ccccc3n2)CCN1 (stereo not drawn)	-0.1215%	-7.724%	7.043%
O=C(O)C1(n2ccnc2)CCN(Cc2cc3ccccc3o2)CC1	-2.665%	-10.58%	-1.569%
Cc1ccc(N2N=C(C(=O)O)S(=O)(=O)c3cccnc32)cc1	7.472%	2.667%	-1.608%
COCCNC(=O)NC(c1ccccc1)c1ccccc1OC (stereo not drawn)	0.1454%	-6.926%	-0.899%
CCOc1ncccc1C(=O)N(C)C1CCN(c2ccccn2)CC1	-0.3522%	-29.42%	-4.138%
Cc1nnc(C(C)NCC2(c3ccc(Cl)cc3)CCCC2)o1 (stereo not drawn)	-3.353%	-13.63%	-3.793%
NC(=O)c1ccc(CNC(=O)NCc2cc[nH]n2)cc1	2.174%	0.2617%	0.2463%
Cc1cccnc1NCCNc1cc(C(C)C)nc2ccnn12	2.334%	10.54%	2.783%
O=C(NCC1CC1)c1cc2c(s1)CCN2C(=O)c1cccnc1	3.656%	-16.81%	-11.97%
COc1ccc([C@@H]2CN(c3cc(OC)ncn3)C[C@H]2N(C)C)cc1	0.1491%	12.95%	2.27%
Cc1ccc2c(n1)N(CCn1cccn1)CCN(C(=O)NC(C)C)C2	-0.4167%	-4.464%	10.98%
Cc1nn(C)c2nc(NCCCN3CCCC(CO)C3)sc12 (stereo not drawn)	5.883%	-9.731%	-0.311%
CCn1nc2c(cc1=O)CN(Cc1nc3ccccc3c(=O)[nH]1)CC2	8.891%	-4.19%	3.065%
CS(=O)(=O)N1CCOCC2(CN(Cc3ccc(F)cc3)CCO2)C1 (stereo not drawn)	7.183%	-7.242%	-1.907%
C=C(C)COc1ccccc1C(=O)NCCCc1nnn[nH]1	-0.09314%	-7.631%	-1.41%
CCOC(=O)c1coc(N2CCC(N3CCC(O)CC3)CC2)n1	0.4399%	-4.638%	-1.251%
OC[C@H]1CN(Cc2c(Cl)cncc2Cl)C[C@H]1CN1CCCCCC1	4.846%	6.302%	-5.523%
COc1ccc(NC(=O)c2cnc(N3CCN(C)CC3)nc2C)cc1	-4.665%	-21.43%	-5.91%
CC(C)Cc1nc(CN2CCC(N3CCN(C)C3=O)CC2)no1	7.047%	-7.901%	-0.854%
Cn1c(CN2CCC(N3CCNC3=O)CC2)cc(=O)n(C)c1=O	3.541%	11.48%	-0.07179%
CC(NC(=O)Cn1ccc2sccc2c1=O)c1ccccc1 (stereo not drawn)	2.275%	-5.558%	0.6221%

Some entries from above, unchanged:

{"smiles": "O=C(Cc1csc(-c2ccco2)n1)N1CCCC1Cn1cccn1", "stereo": "stereo not drawn", "A": 0.6372, "B": -14.68, "C": 2.563}
{"smiles": "CS(=O)(=O)N1CCOCC2(CN(Cc3ccc(F)cc3)CCO2)C1", "stereo": "stereo not drawn", "A": 7.183, "B": -7.242, "C": -1.907}
{"smiles": "Cc1cc2nc(C(C)C)cc(N(C)CC3CCCN3C)n2n1", "stereo": "stereo not drawn", "A": 4.277, "B": 2.391, "C": 0.8777}
{"smiles": "Cc1nn(C)c(C)c1C1CCCN1CC(=O)Nc1cccnc1", "stereo": "stereo not drawn", "A": -2.633, "B": -19.03, "C": 13.98}
{"smiles": "CCNC(=O)C1CCN(c2cc(CC)nc3ccnn23)C1", "stereo": "stereo not drawn", "A": -1.095, "B": -6.315, "C": 5.121}